# Reference: PMC10721602
# No constants are given. Whether binding was seen depends on the method and setting. Some results given as binding are weak or reduced against the parent protein; the word gives no strength. Sequences can lack the tags named with a protein.
# B1: FLAG-PTK7 (protein, UniProt Q13308 1-1070)
# chain: MGAARGSPARPRRLPLLSVLLLPLLGGTQTAIVFIKQPSSQDALQGRRALLRCEVEAPGPVHVYWLLDGAPVQDTERRFAQGSSLSFAAVDRLQDSGTFQCVARDDVTGEEARSANASFNIKWIEAGPVVLKHPASEAEIQPQTQVTLRCHIDGHPRPTYQWFRDGTPLSDGQSNHTVSSKERNLTLRPAGPEHSGLYSCCAHSAFGQACSSQNFTLSIADESFARVVLAPQDVVVARYEEAMFHCQFSAQPPPSLQWLFEDETPITNRSRPPHLRRATVFANGSLLLTQVRPRNAGIYRCIGQGQRGPPIILEATLHLAEIEDMPLFEPRVFTAGSEERVTCLPPKGLPEPSVWWEHAGVRLPTHGRVYQKGHELVLANIAESDAGVYTCHAANLAGQRRQDVNITVATVPSWLKKPQDSQLEEGKPGYLDCLTQATPKPTVVWYRNQMLISEDSRFEVFKNGTLRINSVEVYDGTWYRCMSSTPAGSIEAQARVQVLEKLKFTPPPQPQQCMEFDKEATVPCSATGREKPTIKWERADGSSLPEWVTDNAGTLHFARVTRDDAGNYTCIASNGPQGQIRAHVQLTVAVFITFKVEPERTTVYQGHTALLQCEAQGDPKPLIQWKGKDRILDPTKLGPRMHIFQNGSLVIHDVAPEDSGRYTCIAGNSCNIKHTEAPLYVVDKPVPEESEGPGSPPPYKMIQTIGLSVGAAVAYIIAVLGLMFYCKKRCKAKRLQKQPEGEEPEMECLNGGPLQNGQPSAEIQEEVALTSLGSGPAATNKRHSTSDKMHFPRSSLQPITTLGKSEFGEVFLAKAQGLEEGVAETLVLVKSLQSKDEQQQLDFRRELEMFGKLNHANVVRLLGLCREAEPHYMVLEYVDLGDLKQFLRISKSKDEKLKSQPLSTKQKVALCTQVALGMEHLSNNRFVHKDLAARNCLVSAQRQVKVSALGLSKDVYNSEYYHFRQAWVPLRWMSPEAILEGDFSTKSDVWAFGVLMWEVFTHGEMPHGGQADDEVLADLQAGKARLPQPEGCPSKLYRLMQRCWALSPKDRPSFSEIASALGDSTVDSKP
# Target: bls-EGFR extracellular domain (human) (UniProt P00533)
# Assay: AlphaScreen or HTRF; biotinylated bls-EGFR extracellular domain and FLAG fusion proteins from the wheat cell-free system mixed in 100 mM Tris-HCl pH 8.0, 1 mg/mL BSA, 100 mM NaCl, 0.1% Tween20, 26 °C 1 h; streptavidin donor and protein A acceptor beads
binder,measurement,value
B1,binding,binds
